Data published in publication PMC7949057, “The cytoprotective protein MANF promotes neuronal survival independently from its role as a GRP78 cofactor” (The Journal of Biological Chemistry, 2021).
These are yes or no findings as the source states them, for the method shown. In cells and extracts the contact can be indirect. Binding calls can cover weak binding; strength is not graded here. Tags and fused reporters may be left off the sequences shown.

Target: T1, MANF N-terminally tagged with a Venus fragment (pre-NV-MANF or pre-CV-MANF) (human) (UniProt P55145)
T1 sequence: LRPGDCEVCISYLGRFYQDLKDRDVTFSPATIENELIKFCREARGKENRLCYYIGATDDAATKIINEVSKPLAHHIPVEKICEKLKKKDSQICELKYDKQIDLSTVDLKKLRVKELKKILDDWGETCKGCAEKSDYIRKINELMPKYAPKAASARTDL
Test: split reporter; split Venus BiFC (NV, VN173 and CV, VC155) in co-transfected HEK293 cells, fixed 20 to 24 h after transfection, confocal imaging, ER shown by anti-calreticulin

PDIA6 fused C-terminally with a Venus fragment (BiFC)
binding: binds

KCRB fused with a Venus fragment (BiFC)
binding: binds

GRP78 fused C-terminally with a Venus fragment (BiFC)
binding: binds

IF4A1 fused with a Venus fragment (BiFC)
binding: no binding

HS105 fused with a Venus fragment (BiFC)
binding: no binding

ENOA fused with a Venus fragment (BiFC)
binding: no binding

ECHB fused with a Venus fragment (BiFC)
binding: no binding

CH60 fused with a Venus fragment (BiFC)
binding: binds

PGAM1 fused with a Venus fragment (BiFC)
binding: binds
